US20260035450A1
No constants are given. Whether binding was seen depends on the method and setting. Some binding calls cover weakened binding; strength is not graded here. Sequences can lack the tags named with a protein.

Target: T1, Full-length His6-tagged hANGPTL3 (human) (UniProt Q9Y5C1)
T1 sequence: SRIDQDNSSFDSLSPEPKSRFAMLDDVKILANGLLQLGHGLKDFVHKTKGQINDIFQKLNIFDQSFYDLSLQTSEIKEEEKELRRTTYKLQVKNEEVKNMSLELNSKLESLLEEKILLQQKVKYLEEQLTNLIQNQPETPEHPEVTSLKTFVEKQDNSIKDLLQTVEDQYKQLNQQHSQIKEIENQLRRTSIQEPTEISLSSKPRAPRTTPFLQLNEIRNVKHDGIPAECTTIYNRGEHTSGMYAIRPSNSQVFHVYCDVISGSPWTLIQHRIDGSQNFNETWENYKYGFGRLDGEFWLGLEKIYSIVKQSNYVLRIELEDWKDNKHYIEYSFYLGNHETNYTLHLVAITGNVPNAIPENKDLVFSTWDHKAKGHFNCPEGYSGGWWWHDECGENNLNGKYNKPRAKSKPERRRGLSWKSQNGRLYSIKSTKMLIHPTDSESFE
Test: SPR, His6-tagged hANGPTL3 captured by anti-His antibody, antibodies flowed at pH 6.0 and pH 7.4

binding: binds
B1: Antibodies containing the variable domains of the heavy and light chains of tmAb0.1 and tmAb1 (antibody, V domains shown)
VH: EVQLLESGGGLVQPGGSLRLSCAASGFNFRSYWMTWVRQAPGKGLEWVSSISSHSTYIYYADSVKGRFTISRDNSKNTLYLQMNSLRAEDTATYYCAREGWYDNWFDPWGQGTLVTVSS
VL: EIVLTQSPGTLSLSPGERATLSCRASQNIRSPYLAWYQQKPGQAPRLLIYGVSSRAAGIPDRFSGSGSGTDFTLTISRLEPEDFAVYYCQQYDDHPYTFGQGTKLEIK
